Reference: US20070065410A1
No constants are given. Whether binding was seen depends on the method and setting. Binding can be weak; no strength is given.

Molecular target: Recombinant protein B55 (regulatory sub-unit of PP2A) expressed in bacteria (Homo sapiens (Human))
Assay: SPOT dodecapeptide membrane, overlay with purified protein, antibody detection

B1: Bcl-2 Site 1-B peptidic sequence 67-…-86 (peptide)
peptide: ARTSPLQTPAAPGAAAGPAL
- binding: binds
